# Experimental data taken from PubChem BioAssay AID1347426 (Functional Genomics Laboratory (NCATS/FGL), 2020).
# About 1,400 (4.5%) of roughly 31,000 sequences were called active.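 How the source made its calls: active means median seed-adjusted z-score above 1 or below -1; inactive means the rest.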 This is one part of the list.
# Assay: Novel Modifiers of Survival Motor Neuron (SMN) Protein: Gene Identification via Genome-wide siRNA Screen
# Conditions: HEK293T SMN2-luciferase reporter, siRNA knockdown, 72 h; actives lie on both sides
# From the text: Spinal muscular atrophy (SMA) is the most common neuromuscular autosomal recessive disorder and one of the leading genetic causes of infant death. SMA results from mutations inducing loss of function or deletion in the survival of motor neuron-1 gene (SMN1), leading to deficiency of the survival motor neuron (SMN) protein. Although a second nearly identical gene, SMN2, is retained in humans, its expression primarily produces an aberrantly spliced isoform that is largely unstable and quickly degraded. We performed a genome-wide RNAi screen using a cell-based reporter assay to identify genes and pathways that modulate SMN protein stability. The screen identified over 200 genes that led to the greatest increase or decrease in luciferase expression.
# Using HEK293T cells stably expressing a luciferase reporter that combines the promoter and splicing based cassettes in tandem with the major portion of the native SMN2 cDNA with luciferase, we performed a genome-wide RNAi screen to identify modulators of SMN protein levels. Luciferase is expressed when full-length SMN protein is generated with luminescence signal proportional to SMN protein levels. Our luciferase-based reporter assay was used to screen Ambion Silencer Select Human Druggable Genome siRNA library (10418 genes, 3 unique siRNAs per gene) using lipid-based reverse transfection.
# Briefly, 1 pmol of each siRNA was spotted to a well of a 384-well plate (Corning, Corning, NY) and 20 microL of serum-free DMEM containing […] of Lipofectamine RNAiMax (Life Technologies, Carlsbad, CA) was then added to each well. Transfected cells were maintained at 37 degrees C in 5% CO2 for 72 hours, 20 microL of ONE-Glo Reagent (Promega) was added to wells for luciferase quantification. Raw luminescence reads were normalized to Ambion(R) Silencer(R) Negative Control #2 siRNA, then log10 transformed. A robust statistical measure of median absolute deviation (MAD) to standardize siRNA activities from each screen. Common Seed Analysis was used to help prioritize clean hits as opposed to those appearing to arise from seed based off-target effects. Candidate modulators were defined as the genes having a MAD score greater than 1.0 or less than -1.0.
row,Sequence,median seed-adjusted z-score
1,CCAAUCUGGUGACGAUUUATT against SP110,inactive: -0.788
2,GGGAGAUUCUCCAACUAAATT against SR140,active: 1.16
3,GAUCAGCAUUUGCAUGGAATT against MAP2K2,inactive: -0.502
4,GCACGAGCCGCAACGAAUATT against ELK3,inactive: -0.16
5,GAGUAGUUUUCAACGUAAUTT against ACSL3,inactive: 0
6,GCUCCAUAUGUCAACCGUATT against PLOD2,inactive: -0.281
7,GGUCAUAUAUUUCACACGATT against ADAMTS18,inactive: 0.824
8,GCAGAAUUGGAGACGGAAATT against DNALI1,inactive: 0.699
9,GGUGAUCGAUGAUGCCCAUTT against SYN3,inactive: -0.729
10,GGCAUCUACUCGUUCAGGATT against MEIS1,inactive: 0
11,GAAAGUGGAUGGUGCAACATT against FBXO27,inactive: -0.286
12,CUACGAUUCUGGUGGAAUATT against TRRAP,active: -1.25
13,CGAUCGCGGUUUUAAUCGATT against PPP2R1B,inactive: -0.295
14,CCAUGGACACAGAAGAUGUTT against ZP3,inactive: 0.495
15,CCUCGAUUCUUAAAGACGATT against RELN,inactive: 0.207
16,GAUCCUCAGCUGUUAAGUATT against DCLK2,inactive: -0.552
17,GAGCCUACUUGGAUGUUAATT against PAPPA,inactive: -0.0169
18,GCUGAUUCAUAGGAUCAAUTT against DBR1,inactive: 0.438
19,GGACUACCCUAUCAAGUAATT against EP300,inactive: -0.2
20,GCAGAGGUACUAAUACGGATT against MSH4,inactive: 0
21,CGUCCGGAAUGAUAGUCUUTT against YKT6,inactive: -0.065
22,GGAUUAAUCCACGAAUUGATT against EGF,inactive: 0.00831
23,GGUCAGUUACCGCAUGUCATT against HSPB9,inactive: 0.262
24,GGAUCUAUCCAGGUAUAAATT against CACNA2D4,inactive: -0.0464
25,AAUUCCGCCUGGAACAAAATT against PDE6D,inactive: 0
26,GGUACCUGCUGAUUCAGAATT against SLC2A5,inactive: -0.429
27,GUAUUGGUCUGUGAGCGAATT against SUCLA2,inactive: -0.21

row,Sequence,median seed-adjusted z-score
1,GCAUAGCUCUCGAUAAGAATT against MYH4,active: -1.8
2,CCAUAUUCCCAUGCACAUUTT against FADS1,inactive: -0.905
3,GCUCAGUCAUGUACUGAAATT against ANTXR2,inactive: -0.727
4,GCAACAACUUCUUAGAGCATT against SMC3,inactive: 0.507
5,ACUUAUGACUAACUUCUUATT against GPR148,inactive: 0
6,CGAGUGUCAGUGAUCCUGATT against TDO2,inactive: -0.141
7,GGAUGACAGUCUCAUUGCATT against GON4L,inactive: 0.116
8,GCAUCAAACAGAGUGAACUTT against APOC1,inactive: 0
9,GCUUUGCUGAGGUCUAUAATT against TGFBR2,inactive: 0.8
10,AGUGCUUCAUGUGCAGUGATT against PDLIM4,inactive: -0.637
11,GGUGAUUUAAUGAUCAGAATT against CNTN3,inactive: 0.732
12,CACUAGAGCUUUAGCAAAATT against TFEC,inactive: -0.0734
13,GGCCUAUGCUUGUAUGGCUTT against TP53I13,inactive: 0
14,GCUCAAUGGUUAUUCGGGATT against RFX3,inactive: 0.17
15,CAUUAGAUCUGUGAUUAGATT against MCOLN3,inactive: -0.09
16,GCACCCUAUCUAUGCCUAUTT against GCDH,inactive: -0.0391
17,CAAACAGAUCGGCAGAAAATT against ASIP,inactive: -0.23
18,GGAGCGAAGCUACGACUAUTT against WDTC1,inactive: -0.412
19,GAAGGGAACUUGCCGAAAATT against RHOXF1,inactive: 0.341
20,CCAUGUCCAUAUGCAUCUATT against HYAL1,inactive: -0.163
21,AGAAAAAUGAGAACCUCCATT against SLC25A19,inactive: -0.104
22,CAGGGACUGUGAAAAAGCUTT against ZNF84,inactive: -0.246
23,CUACCAGCGAGAAACAAGATT against TUBGCP6,inactive: 0
24,GACCCUGAGUAGGAAGGAATT against S100A5,inactive: 0.418
25,UCCCAGUGAUUAUACGUUATT against ARPC4,inactive: -0.211
26,CUGAUAGUGCUGAAGCUAATT against NPL,inactive: -0.0324
27,AUCCUUAUUUGACACGAAATT against HOXC8,inactive: -0.0285

# Three neighbouring entries from above:
row,Sequence,median seed-adjusted z-score
13,GGCCUAUGCUUGUAUGGCUTT against TP53I13,inactive: 0
14,GCUCAAUGGUUAUUCGGGATT against RFX3,inactive: 0.17
15,CAUUAGAUCUGUGAUUAGATT against MCOLN3,inactive: -0.09
